Data on two substances can be found in patent US10159726B2, “Peptides, combination of peptides and scaffolds for use in immunotherapeutic treatment of various cancers” (Immatics Biotechnologies GmbH, priority 2015, dated 2018).

For some of these results: Expression values are those of the mRNA of the gene that encodes the peptide; a gene is named only where it was looked up.

Design in all cases: species or system human
Series [1] concerns source genes of selected peptides. The series is described as follows: Target coverage of source genes in tumor entities based on TCGA Research Network data. As to conditions: over-expressed = more than 2-fold above the highest 75% percentile of normal organs; for Target coverage, over-expression category of source gene, BLCA (N = 408): Bladder urothelial carcinoma; for Target coverage, over-expression category of source gene, CESC (N = 307): Cervical squamous cell carcinoma and endocervical adenocarcinoma; for Target coverage, over-expression category of source gene, HNSC (N = 521): Head and neck squamous cell carcinoma.

For series [2] the test system is unchanged. Put plainly: Expression profiling of source genes by in-house RNAseq, tumor vs normal tissues (target coverage). As to conditions: for Target coverage, over-expression of source gene, AML: AML (N = 7), over-expression = more than 1.5-fold higher expression on tumor vs highest-expressing relevant normal tissue; for Target coverage, over-expression of source gene, AML / Target coverage, over-expression of source gene, BRCA / Target coverage, over-expression of source gene, CLL / Target coverage, over-expression of source gene, CRC / Target coverage, over-expression of source gene, GB / Target coverage, over-expression of source gene, HCC / Target coverage, over-expression of source gene, OC / Target coverage, over-expression of source gene, OSCAR / Target coverage, over-expression of source gene, PC / Target coverage, over-expression of source gene, RCC / Target coverage, over-expression of source gene, SCLC / Target coverage, over-expression of source gene, pNSCLC: in-house RNASeq; for Target coverage, over-expression of source gene, BRCA: BRCA (N = 10); for Target coverage, over-expression of source gene, BRCA / Target coverage, over-expression of source gene, CLL / Target coverage, over-expression of source gene, CRC / Target coverage, over-expression of source gene, GB / Target coverage, over-expression of source gene, HCC / Target coverage, over-expression of source gene, OC / Target coverage, over-expression of source gene, OSCAR / Target coverage, over-expression of source gene, PC / Target coverage, over-expression of source gene, RCC / Target coverage, over-expression of source gene, SCLC / Target coverage, over-expression of source gene, pNSCLC: over-expression = more than 1.5-fold vs highest normal tissue; for Target coverage, over-expression of source gene, CLL: CLL (N = 10); for Target coverage, over-expression of source gene, CRC: CRC (N = 20); for Target coverage, over-expression of source gene, GB: GB (N = 24); for Target coverage, over-expression of source gene, HCC: HCC (N = 15); for Target coverage, over-expression of source gene, OC: OC (N = 12); for Target coverage, over-expression of source gene, OSCAR: OSCAR (N = 11); for Target coverage, over-expression of source gene, PC: PC (N = 26); for Target coverage, over-expression of source gene, RCC: RCC (N = 10); for Target coverage, over-expression of source gene, SCLC: SCLC (N = 10); for Target coverage, over-expression of source gene, pNSCLC: pNSCLC (N = 11).

The test system of series [3] is HLA-A*24 molecules of primary tumors. The series is described as follows: Identification and relative LC-MS quantitation of HLA-A*24 tumor-associated peptides presented on tissue samples (XPRESIDENT presentation profiles).

In the case of “124: peptide found in PRKDC (gene looked up) (TYKDYVDLF; listed as Homo sapiens) [compound 124]”, in series [1], the “Target coverage, over-expression category of source gene, BLCA (N = 408)” value is recorded as “C (>=5% of tumors above the cutoff, but <20%)”; the “Target coverage, over-expression category of source gene, CESC (N = 307)” value was “C (>=5% of tumors above the cutoff, but <20%)”; the “Target coverage, over-expression category of source gene, HNSC (N = 521)” value is “B (>=20% of tumors above the cutoff, but <50%)”. Also, in series [2], the “Target coverage, over-expression of source gene, AML” value is reported as “I (<19% over-expression = I)”; the “Target coverage, over-expression of source gene, BRCA” value is reported as “III (50-69% = III)”; the “Target coverage, over-expression of source gene, CLL” value is recorded as “I (<19% over-expression = I)”; the “Target coverage, over-expression of source gene, CRC” value is given as “II (20-49% = II)”. In addition, in series [2], the “Target coverage, over-expression of source gene, GB” value is “III (50-69% = III)”; the “Target coverage, over-expression of source gene, HCC” value is “I (<19% over-expression = I)”; the “Target coverage, over-expression of source gene, OC” value is “III (50-69% = III)”; the “Target coverage, over-expression of source gene, OSCAR” value was “II (20-49% = II)”. In addition, in series [2], the “Target coverage, over-expression of source gene, PC” value is given as “I (<19% over-expression = I)”; the “Target coverage, over-expression of source gene, RCC” value is recorded as “I (<19% over-expression = I)”; the “Target coverage, over-expression of source gene, SCLC” value is “IV (>70% = IV)”; the “Target coverage, over-expression of source gene, pNSCLC” value is listed as “III (50-69% = III)”. Also, the “Target coverage for source genes of selected peptides, GBC_CCC (N = 10)” value in series [2] (gallbladder adenocarcinoma and cholangiocarcinoma, share of tumors with more than 1.5-fold higher expression than the highest-expressing relevant normal tissue, in-house RNAseq) is reported as “I (<19% over-expression = I)”. In addition, the “Target coverage for source genes of selected peptides, GC (N = 11)” value in series [2] (gastric cancer, share of tumors with more than 1.5-fold higher expression than the highest-expressing relevant normal tissue, in-house RNAseq) is listed as “I (<19% over-expression = I)”. Also, the “Target coverage for source genes of selected peptides, HNSCC (N = 10)” value in series [2] (head and neck small cell carcinoma, share of tumors with more than 1.5-fold higher expression than the highest-expressing relevant normal tissue, in-house RNAseq) is “I (<19% over-expression = I)”. Moreover, the “Target coverage for source genes of selected peptides, MEL (N = 10)” value in series [2] (melanoma, share of tumors with more than 1.5-fold higher expression than the highest-expressing relevant normal tissue, in-house RNAseq) is on record as “II (20-49% = II)”. The “Target coverage for source genes of selected peptides, NHL (N = 10)” value in series [2] (non-Hodgkin lymphoma, share of tumors with more than 1.5-fold higher expression than the highest-expressing relevant normal tissue, in-house RNAseq) is listed as “II (20-49% = II)”. The “Target coverage for source genes of selected peptides, PCA (n = 10)” value in series [2] (prostate cancer and benign prostate hyperplasia, share of tumors with more than 1.5-fold higher expression than the highest-expressing relevant normal tissue, in-house RNAseq) was “I (<19% over-expression = I)”. Moreover, the “Target coverage for source genes of selected peptides, UBC (N = 10)” value in series [2] (urinary bladder cancer, share of tumors with more than 1.5-fold higher expression than the highest-expressing relevant normal tissue, in-house RNAseq) is listed as “I (<19% over-expression = I)”. Besides, the “Target coverage for source genes of selected peptides, UTC (N = 10)” value in series [2] (uterine cancer, share of tumors with more than 1.5-fold higher expression than the highest-expressing relevant normal tissue, in-house RNAseq) is on record as “I (<19% over-expression = I)”. For the same substance, in series [3] (Table 9A: selected HLA-A*24-binding tumor-associated peptides, cancer entities on which the peptide was found presented), the ENTITIES entry is listed as “GC, RCC, GB, PCA, HCC, NSCLC”.

In the case of “173: peptide found in MMP10 (gene looked up) (QYLEKYYNL; listed as Homo sapiens) [compound 173]”, in series [1], the “Target coverage, over-expression category of source gene, BLCA (N = 408)” value is “C (>=5% of tumors above the cutoff, but <20%)”; the “Target coverage, over-expression category of source gene, CESC (N = 307)” value is “B (>=20% of tumors above the cutoff, but <50%)”; the “Target coverage, over-expression category of source gene, HNSC (N = 521)” value was “A (>=50% of tumors above the cutoff)”. Moreover, in series [2], the “Target coverage, over-expression of source gene, AML” value is reported as “I (<19% over-expression = I)”; the “Target coverage, over-expression of source gene, BRCA” value was “I (<19% over-expression = I)”; the “Target coverage, over-expression of source gene, CLL” value was “I (<19% over-expression = I)”; the “Target coverage, over-expression of source gene, CRC” value is recorded as “I (<19% over-expression = I)”. In addition, in series [2], the “Target coverage, over-expression of source gene, GB” value is on record as “I (<19% over-expression = I)”; the “Target coverage, over-expression of source gene, HCC” value is recorded as “I (<19% over-expression = I)”; the “Target coverage, over-expression of source gene, OC” value was “I (<19% over-expression = I)”; the “Target coverage, over-expression of source gene, OSCAR” value was “II (20-49% = II)”. Besides, in series [2], the “Target coverage, over-expression of source gene, PC” value was “I (<19% over-expression = I)”; the “Target coverage, over-expression of source gene, RCC” value is given as “I (<19% over-expression = I)”; the “Target coverage, over-expression of source gene, SCLC” value was “I (<19% over-expression = I)”; the “Target coverage, over-expression of source gene, pNSCLC” value was “II (20-49% = II)”. The “Peptide Presentation on cancer entities” value in series [3] (Table 9B: selected HLA-A*24 peptides, presentation on additional cancer entities) is “NSCLC”.
